Assay results taken from US11207343B2, “Compositions and therapeutic methods” (AyuVis Research LLC, priority 2016, dated 2021).
Some entries share one result that the patent states for a list of compounds.

The chains behind the UniProt entries cited, without tags or fusion partners. Residues count along the entry.
UniProt O00206, 24-839: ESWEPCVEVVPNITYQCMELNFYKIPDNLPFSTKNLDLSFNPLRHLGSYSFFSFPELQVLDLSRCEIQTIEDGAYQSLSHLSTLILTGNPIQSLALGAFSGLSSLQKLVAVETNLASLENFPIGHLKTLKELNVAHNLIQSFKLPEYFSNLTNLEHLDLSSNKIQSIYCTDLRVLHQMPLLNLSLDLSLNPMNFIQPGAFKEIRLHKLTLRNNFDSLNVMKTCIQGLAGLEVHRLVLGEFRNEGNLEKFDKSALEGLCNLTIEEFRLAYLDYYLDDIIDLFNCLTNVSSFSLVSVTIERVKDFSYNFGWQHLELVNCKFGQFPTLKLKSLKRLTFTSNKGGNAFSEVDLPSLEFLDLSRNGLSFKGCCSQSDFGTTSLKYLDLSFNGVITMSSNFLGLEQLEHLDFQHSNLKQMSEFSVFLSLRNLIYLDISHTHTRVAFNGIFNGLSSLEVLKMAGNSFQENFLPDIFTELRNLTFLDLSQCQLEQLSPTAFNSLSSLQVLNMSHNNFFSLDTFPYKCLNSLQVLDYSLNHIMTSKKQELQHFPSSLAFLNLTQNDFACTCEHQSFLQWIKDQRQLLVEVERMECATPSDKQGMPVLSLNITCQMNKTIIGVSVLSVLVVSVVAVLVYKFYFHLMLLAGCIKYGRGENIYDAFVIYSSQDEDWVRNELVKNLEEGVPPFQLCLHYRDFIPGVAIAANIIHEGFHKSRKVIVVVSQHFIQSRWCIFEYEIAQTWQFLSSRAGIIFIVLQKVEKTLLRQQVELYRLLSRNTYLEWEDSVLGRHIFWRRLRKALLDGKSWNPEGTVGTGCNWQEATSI
UniProt O60603, 21-784: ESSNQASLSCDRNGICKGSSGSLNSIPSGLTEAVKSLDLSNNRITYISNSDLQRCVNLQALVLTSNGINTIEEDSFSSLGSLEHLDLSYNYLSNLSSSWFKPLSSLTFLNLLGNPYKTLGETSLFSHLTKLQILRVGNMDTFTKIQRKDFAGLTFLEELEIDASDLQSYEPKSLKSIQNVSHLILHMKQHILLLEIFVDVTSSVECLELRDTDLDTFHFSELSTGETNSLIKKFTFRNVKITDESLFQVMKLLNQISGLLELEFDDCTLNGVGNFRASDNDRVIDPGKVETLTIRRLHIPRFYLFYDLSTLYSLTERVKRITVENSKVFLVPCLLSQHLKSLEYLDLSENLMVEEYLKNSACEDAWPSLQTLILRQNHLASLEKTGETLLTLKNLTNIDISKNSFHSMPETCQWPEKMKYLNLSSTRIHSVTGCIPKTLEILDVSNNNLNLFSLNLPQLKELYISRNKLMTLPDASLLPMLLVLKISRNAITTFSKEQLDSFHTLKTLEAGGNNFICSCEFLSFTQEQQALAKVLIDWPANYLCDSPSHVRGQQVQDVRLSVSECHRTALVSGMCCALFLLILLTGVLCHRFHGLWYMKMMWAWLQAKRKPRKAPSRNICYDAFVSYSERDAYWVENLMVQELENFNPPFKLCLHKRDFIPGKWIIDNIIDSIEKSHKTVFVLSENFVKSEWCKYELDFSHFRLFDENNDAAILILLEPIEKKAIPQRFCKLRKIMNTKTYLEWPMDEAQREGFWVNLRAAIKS

What was measured:
TLR4 receptor = molecular target: T1, TLR4 receptor (Homo sapiens, UniProt O00206); test: ELISA binding of compounds to TLR4 from human monocyte lysates; details: compounds 10 μM, anti-TLR4 antibody
T1 construct: It was then incubated with human monocyte lysates and then probed with anti-TLR4 and anti-TLR2 antibodies; endogenous in cells; host or cells: primary human monocytes isolated from LeukoPak blood sample (lysate)

TLR2 receptor = molecular target: T2, TLR2 receptor (Homo sapiens, UniProt O60603); test: ELISA binding of compounds to TLR2 from human monocyte lysates; details: compounds 10 μM, anti-TLR2 antibody
T2 construct: It was then incubated with human monocyte lysates and then probed with anti-TLR4 and anti-TLR2 antibodies; endogenous in cells; host or cells: primary human monocytes isolated from LeukoPak blood sample (lysate)

[1] = tested on: LPS induced cytokines (TNF-α, IL-1β and IL-6) in human monocytes; test: Inhibition of LPS induced inflammatory mediators in human monocytes; assay type: cell-based; details: 10 μM, 48 h
Method: To understand the structural requirement and limitations to probe the TLR4 binding pocket for optimal potency and efficacy, we have studied the ability of chitooligomers to inhibit LPS induced inflammation in human monocytes (FIG-8 A-B). Compounds 1-4 inhibited LPS induced cytokines TNF-α, IL-1β and IL-6) in a statistically significant manner at 10 μM concentration. […] The protocol was followed as described [Panda etal, PLoS Pathog 2012, 8, e1002717]. Human monocytes were stimulated with LPS along with the series of compounds (10 μM) for 48 h. TNF-α, IL-1β, I1-6 in culture supernatants were quantified according to the manufacturer's instruction. Similarly, other analogs were assessed for their ability to inhibit LPS induced TNF-α production in human monocytes.

chitohepatose [Compound 2]
binding to TLR4 receptor (TLR4 receptor): binds to TLR4 receptor effectively | binding to TLR2 receptor (TLR2 receptor): not to TLR2 receptor | inhibition of LPS induced cytokines (TNF-α, IL-1β and IL-6) [1]: inhibited
